The values below come from patent KR20180095349A.

The chains behind the UniProt entries cited, without tags or fusion partners. Where a name states a change or a piece, a line headed by the entry shows the natural chain unless it says otherwise. A line that says so, or that is headed by a name, gives the form on record, which may keep a tag or linker.
VEGF 항원 단백질 (VEGF-His) (P15692, form named): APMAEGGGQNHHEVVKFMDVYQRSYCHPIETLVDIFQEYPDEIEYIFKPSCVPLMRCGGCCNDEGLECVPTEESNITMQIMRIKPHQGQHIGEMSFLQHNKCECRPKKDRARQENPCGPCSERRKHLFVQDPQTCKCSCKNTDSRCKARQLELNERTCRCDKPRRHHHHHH

These are yes or no findings as the source states them, for the method shown. Some results given as binding are weak or reduced against the parent protein; the word gives no strength.

First the molecules themselves.
B1: 항-VEGF 단일 클론 파지 항체 4C4 (scFv-파지) (scFv, V domains shown)
VH: QVQLVQSGAEVKKPGSSVKVSCKASGGTFSSSAFSWVRQAPGHGLEWMGRIIPMFDMTDYAQRFQGRLTIIADESSSTAYMELSSLRSEDTAVYYCARYKSGSYGMDVWGQGTTVTVSS
VL: NFMLTQPASVSGSPGQSITISCTGSSSDVGGYNYVSWYQQHPGKAPQLIIYDVTKRPSGVSNRFSGSKSGNSASLTISGLQAEDEADYYCSSYSSSTFYVFGTGTKVTVL
B2: 항-VEGF 단일 클론 파지 항체 7D2 (scFv-파지) (scFv, V domains shown)
VH: QMQLVQSGGGLVQPGGSLRLSCAASGFTFSSFEMNWVRQAPGKGLEWLSYISNSGSTIYYADSVKGRFTISRDNAKNSLYLQMNSLRAEDTAVYYCARDSRYYGIHGMDVWGQGTTITVSS
VL: DIQMTQSPSSLSASVGDRVTITCRASQTISTYLNWYQQKPGKAPKLLIYAASSLQSGVPSRFSGSGSGTDFTLTISSLQPEDFATYYCQQSSSTPRTFGQGTRLEIK
B3: 항-VEGF 단일 클론 파지 항체 3H1 (scFv-파지) (scFv, V domains shown)
VH: QVQLVESGGGLVKPGGSLRLSCAASGFIFSRYGMNWVRQAPGKGLEWVSSISGSSNYRYYADSVKGRFTISRDNAKNSLYLQMNSLRAEDTAVYYCARDASWGLIQGLDSWGQGTLVTVSS
VL: DIQMTQSPSSLSASVGDRVTITCRASQSISSYLNWYQQEPGKAPKLLIYDASSLQSGVPSRFSGGGSGTDFTLTISSLQPEDFAAYYCQQSYSTPYTFGQGTKVDIK

The target in this test is VEGF 항원 단백질 (VEGF-His) (UniProt P15692). The test is described as follows: phage ELISA screening followed by fingerprinting and sequencing.
In the case of B1, the binding result is “binds”.
For B2, the binding result is reported as “binds”.
The result for B3 reads “binds”.
